{
  "source": "patent US20260137689A1",
  "about": "“INTEGRATION OF MOLECULAR MECHANISMS IN THE STRIATUM AS A COMBINATION DRUG STRATEGY FOR THE TREATMENT OF PSYCHIATRIC AND NEUROLOGICAL DISORDERS IN WHICH ANHEDONIA OR MOTIVATION-RELATED DYSFUNCTION EXISTS” (Alto Neuroscience, Inc., priority 2021, published 2026)",
  "key": {"C57/BL6 mice": {"test_system": "C57/BL6 mice", "experiment": "Forced swim test", "format": "in vivo", "details": "FIG. 2 doses: imipramine 20 mg/kg, istradefylline 0.1 mg/kg, varenicline 0.17 mg/kg, alone or combined", "protocol": "FIG. 2 is a bar graph of the time during a forced swim test after treatment with saline, 20 mg/kg for imipramine, 0.1 mg/kg for istradefylline, 0.17 mg/kg for varenicline, and a combination of 0.1 mg/kg for istradefylline and 0.17 mg/kg for varenicline.\nWithout being bound by a particular theory, the inventors theorized that an increase in dopamine release, when coupled with A2A antagonism, could result in an antidepressant response-essentially aiming to replace direct D2 agonism with a drug that leads to its release and to an increase in D2/D3 receptor availability. […] Of note, however, varenicline has been approved in humans for smoking cessation, and initially carried a black box for increased risk for development of depression, a seemingly opposite outcome to our goal. To determine whether such a combination is viable, we conducted forced swim tests in C57/BL6 mice. […] One such example is 5 mg-40 mg of istradefylline together with 0.25-3 mg of varenicline.\nTo determine whether such a combination is viable, forced swim tests in C57/BL6 mice were conducted. The forced-swim test is used to assess depressive-like behavior in mice. The time spent immobile is considered a measure of depressive-like behavior. Immobility scores for each mouse were determined by manual scoring."}, "parkinsonian marmoset": {"test_system": "parkinsonian marmoset", "details": "parkinsonian marmoset (ref. 35); cited from earlier work"}},
  "note": "For at least one compound, name, drawing or mass did not settle the structure.",
  "data": [
    {"smiles": "CCn1c(=O)c2c(nc(/C=C/c3ccc(OC)c(OC)c3)n2C)n(CC)c1=O", "note": "[istradefylline]", "values": [
      {"measurement": "antidepressant response (time spent immobile) in forced swim test", "setting": "C57/BL6 mice", "value": "by themselves ineffective"},
      {"measurement": "effect on anti-parkinsonian activity of the dopamine agonists ropinirole and pergolide", "setting": "parkinsonian marmoset", "value": "enhances the anti-parkinsonian activity"}
    ]}
  ]
}
